{
  "source": "PubChem BioAssay AID220",
  "about": "(DTP/NCI, 2004)",
  "system": "CD8F1 mice, subcutaneous mammary adenocarcinoma, T/C%",
  "test": "NCI In Vivo Anticancer Drug Screen. Data for tumor model Mammary Adenocarcinoma CD8F1 (subcutaneous) in CD8F1",
  "settings": "T/C endpoint: median tumor weight change, schedule: Q01DX001 (ip), higher T/C = larger tumour",
  "outline": "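Antitumor activity is assessed in transplantable-tumor mice by comparing the treated group with a vehicle-treated control group. Survival or tumor size serves as the measure, reported as T divided by C.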",
  "note": "The list is a part of this screen's results and no random one: it gathers tests that were run many times, whatever their T/C, doses with no T/C, and many T/C values between a quarter and a half above the control. Further doses and runs are listed elsewhere. T/C gives the treated animals as a percentage of the vehicle group. Schedule codes are those of the source, read here as Q, the interval in days (D) or hours (H), X, the number of doses. Some doses were run more than once; their values stand side by side, smallest first. Some T/C values are negative: the treated tumours shrank. Some T/C values are followed by the survivors on the day toxicity was checked, most often the fifth; without a count, all were alive then. Some entries give survivors of the animals treated and no T/C: the source files T/C as zero there, which appears to mark a toxic dose or a test without result, not a measured value. Counts of survivors are from the toxicity check (mostly the fifth day) where no day follows; animals may have died later.",
  "data": [
    {"smiles": "Nc1nc(N)c(N=O)c(Nc2ccc(Br)cc2)n1", "values": [
      {"measurement": "T/C", "setting": "dose: 62.5 mg/kg/injection, vehicle: saline with Tween-80, evaluated on day 26", "result": "49 % of control"},
      {"measurement": "T/C", "setting": "dose: 62.5 mg/kg/injection, vehicle: saline with Tween-80, evaluated on day 30", "result": "44 and 50 % of control"},
      {"measurement": "T/C", "setting": "dose: 62.5 mg/kg/injection, vehicle: saline with Tween-80, evaluated on day 31", "result": "12 % of control"},
      {"measurement": "T/C", "setting": "dose: 62.5 mg/kg/injection, vehicle: saline with Tween-80, evaluated on day 37", "result": "41 % of control"},
      {"measurement": "T/C", "setting": "dose: 125.0 mg/kg/injection, vehicle: saline with Tween-80, evaluated on day 26", "result": "20 % of control"},
      {"measurement": "T/C", "setting": "dose: 125.0 mg/kg/injection, vehicle: saline with Tween-80, evaluated on day 30", "result": "23 and 31 % of control"},
      {"measurement": "T/C", "setting": "dose: 125.0 mg/kg/injection, vehicle: saline with Tween-80, evaluated on day 31", "result": "17 % of control"},
      {"measurement": "T/C", "setting": "dose: 125.0 mg/kg/injection, vehicle: saline with Tween-80, evaluated on day 37", "result": "45 % of control"},
      {"measurement": "T/C", "setting": "dose: 250.0 mg/kg/injection, vehicle: saline with Tween-80, evaluated on day 26", "result": "16 % of control"},
      {"measurement": "T/C", "setting": "dose: 250.0 mg/kg/injection, vehicle: saline with Tween-80, evaluated on day 30", "result": "4 and 29 % of control"},
      {"measurement": "T/C", "setting": "dose: 250.0 mg/kg/injection, vehicle: saline with Tween-80, evaluated on day 31", "result": "15 % of control"},
      {"measurement": "T/C", "setting": "dose: 250.0 mg/kg/injection, vehicle: saline with Tween-80, evaluated on day 37", "result": "14 % of control"},
      {"measurement": "T/C", "setting": "dose: 500.0 mg/kg/injection, vehicle: saline with Tween-80, evaluated on day 26", "result": "19 % of control"},
      {"measurement": "T/C", "setting": "dose: 500.0 mg/kg/injection, vehicle: saline with Tween-80, evaluated on day 30", "result": "11 and 22 % of control"},
      {"measurement": "T/C", "setting": "dose: 500.0 mg/kg/injection, vehicle: saline with Tween-80, evaluated on day 31", "result": "-5 % of control"},
      {"measurement": "T/C", "setting": "dose: 500.0 mg/kg/injection, vehicle: saline with Tween-80, evaluated on day 37", "result": "-10 % of control"},
      {"measurement": "T/C", "setting": "dose: 1000.0 mg/kg/injection, vehicle: saline with Tween-80, evaluated on day 26", "result": "10 % of control"},
      {"measurement": "survivor count", "setting": "dose: 1000.0 mg/kg/injection, vehicle: saline with Tween-80", "result": "3 of 10 on day 30, 4 of 10 on day 30, 5 of 10 on day 37"}
    ]},
    {"smiles": "CC(C)NCC(O)COc1ccc(O)c(O)c1", "note": "(configuration not stated)", "values": [
      {"measurement": "survivor count", "setting": "dose: 250.0 mg/kg/injection, vehicle: saline", "result": "2 of 10 on day 29 and 3 of 10 on day 31"},
      {"measurement": "survivor count", "setting": "dose: 500.0 mg/kg/injection, vehicle: saline", "result": "1 of 10 on day 29 and 1 of 10 on day 31"},
      {"measurement": "survivor count", "setting": "dose: 1000.0 mg/kg/injection, vehicle: saline", "result": "0 of 10 on day 31 and 1 of 10 on day 29"},
      {"measurement": "survivor count", "setting": "dose: 2000.0 mg/kg/injection, vehicle: saline", "result": "0 of 10 on day 29 and 0 of 10 on day 31"}
    ]},
    {"smiles": "CC(C)NC(=O)N(CCCCBr)N=O", "values": [
      {"measurement": "survivor count", "setting": "dose: 500.0 mg/kg/injection, vehicle: Klucel (hydroxypropylcellulose) (HPC)", "result": "2 of 10 on day 30"},
      {"measurement": "survivor count", "setting": "dose: 1000.0 mg/kg/injection, vehicle: Klucel (hydroxypropylcellulose) (HPC)", "result": "0 of 10 on day 28 and 0 of 10 on day 30"}
    ]},
    {"smiles": "CCCCNc1ccc2nnc(C)n2n1", "values": [
      {"measurement": "T/C", "setting": "dose: 62.5 mg/kg/injection, vehicle: other, evaluated on day 32", "result": "140 % of control"},
      {"measurement": "T/C", "setting": "dose: 125.0 mg/kg/injection, vehicle: other, evaluated on day 32", "result": "145 % of control [9 of 10 alive on day 32]"},
      {"measurement": "T/C", "setting": "dose: 250.0 mg/kg/injection, vehicle: DMSO, evaluated on day 30", "result": "133 % of control [7 of 10 alive on day 30]"},
      {"measurement": "survivor count", "setting": "dose: 250.0 mg/kg/injection, vehicle: other", "result": "0 of 10 on day 32"},
      {"measurement": "survivor count", "setting": "dose: 500.0 mg/kg/injection, vehicle: DMSO", "result": "3 of 10 on day 30"},
      {"measurement": "survivor count", "setting": "dose: 500.0 mg/kg/injection, vehicle: other", "result": "0 of 10 on day 32"},
      {"measurement": "survivor count", "setting": "dose: 1000.0 mg/kg/injection, vehicle: DMSO", "result": "1 of 10 on day 30"},
      {"measurement": "survivor count", "setting": "dose: 1000.0 mg/kg/injection, vehicle: other", "result": "0 of 10 on day 32"}
    ]}
  ]
}
